Results taken from patent US20030166192A1.
These are yes or no findings as the source states them, for the method shown. In cells and extracts the contact can be indirect. Some entries that bind do so weakly or less than the wild type. Where a sequence is shown, tags or fusion partners need not be part of it. Each block holds one binder with its values, some of them ahead of it.

Protein sequences, listed by entry. Tags and fused reporters are not part of them.
UniProt O43353: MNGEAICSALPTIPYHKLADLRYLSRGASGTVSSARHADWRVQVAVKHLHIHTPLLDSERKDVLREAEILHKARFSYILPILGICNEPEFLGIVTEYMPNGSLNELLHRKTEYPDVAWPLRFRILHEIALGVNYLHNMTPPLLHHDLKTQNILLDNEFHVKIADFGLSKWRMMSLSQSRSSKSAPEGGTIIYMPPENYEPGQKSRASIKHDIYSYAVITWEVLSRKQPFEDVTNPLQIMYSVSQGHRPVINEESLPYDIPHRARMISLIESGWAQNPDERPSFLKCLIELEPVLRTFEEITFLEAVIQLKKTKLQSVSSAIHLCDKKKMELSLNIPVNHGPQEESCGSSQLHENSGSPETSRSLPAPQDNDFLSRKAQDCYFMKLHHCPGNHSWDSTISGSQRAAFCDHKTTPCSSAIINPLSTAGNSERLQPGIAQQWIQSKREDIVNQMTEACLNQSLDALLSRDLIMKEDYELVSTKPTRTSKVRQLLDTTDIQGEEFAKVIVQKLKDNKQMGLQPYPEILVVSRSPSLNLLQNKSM

Experiments:
[1] = biological target: T1, T7-tagged Pseudo-ICE (human) (UniProt Q5EG05); test: co-immunoprecipitation from 293 T cells, anti-Flag precipitation, anti-T7 western blot
T1 sequence: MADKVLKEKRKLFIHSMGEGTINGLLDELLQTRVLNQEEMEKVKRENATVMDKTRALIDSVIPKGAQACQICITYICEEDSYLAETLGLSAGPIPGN

[2] = biological target: T2, T7-tagged ICE-Like (human) (UniProt P57730); test: co-immunoprecipitation from cotransfected 293 T cells: IP anti-Flag, western blot anti-T7 [panel C]
T2 sequence: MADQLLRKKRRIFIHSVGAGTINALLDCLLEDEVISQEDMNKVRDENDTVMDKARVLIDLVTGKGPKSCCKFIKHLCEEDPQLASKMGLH

[3] = biological target: T2, T7-tagged ICE-Like (human); test: co-immunoprecipitation from 293 T cells, anti-Flag precipitation, anti-T7 western blot
[4] = biological target: T1, T7-tagged Pseudo-ICE (human); test: co-immunoprecipitation from cotransfected 293 T cells: IP anti-Flag, western blot anti-T7 [panel C]
Flag-tagged RICK [5] = biological target: Flag-tagged RICK (UniProt O43353); test: co-immunoprecipitation from 293 T cells, anti-Flag precipitation, anti-T7 western blot
Flag-tagged RICK [6] = biological target: Flag-tagged RICK (UniProt O43353); test: co-immunoprecipitation from 293 T cells cotransfected with Flag-RICK, T7-Casp1C/A and rising amounts of T7-Pseudo-ICE: IP anti-Flag, western blot anti-T7 [panel B]
Pseudo-ICE (human) = biological target: T3, Pseudo-ICE (human) (UniProt Q5EG05); test: GST pull-down, 35S-labelled in vitro translated protein, autoradiography
T3 sequence (chain, 35S-methionine label in the in vitro assay): T1 sequence

ICE-Like (human) = biological target: T4, ICE-Like (human) (UniProt P57730); test: as above
T4 sequence (chain, 35S-methionine label in the in vitro assay): T2 sequence

RICK = RICK (UniProt O43353); test: GST pull-down of 35S-labelled RICK (data not shown)

binding [3]: binds | binding [4]: binds
B2: Flag-tagged ICE-Like (protein, not shown: small tags and cut ends)
chain: T2 sequence

binding (Flag-tagged RICK [5]): binds | binding (Flag-tagged RICK [6]): binds
B3: T7-tagged Pseudo-ICE (protein, not shown: small tags and cut ends)
chain: T1 sequence

binding (Pseudo-ICE (human)): binds | binding (ICE-Like (human)): binds | binding (RICK): binds
B4: GST-conjugated Pseudo-ICE (protein, not shown: a dimerising Fc or GST)
chain: T1 sequence

The next lines start with the binder.

B1: Flag-tagged Pseudo-ICE (protein, not shown: small tags and cut ends)
chain: T1 sequence
binding [1]: binds | binding [2]: binds

B5: GST-conjugated ICE-Like (protein, not shown: a dimerising Fc or GST)
chain: T2 sequence
binding (Pseudo-ICE (human)): binds | binding (ICE-Like (human)): binds
